Results deposited as PubChem BioAssay AID686938 (Drosophila RNAi Screening Center, 2013).

- Test: 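Looking for CRAC channel components and the factors controlling them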 (primary screen)
- System: Drosophila S2R+ cells
- Reagent: long dsRNA against Drosophila genes, about 0.25 µg dsRNA per well, roughly 10,000 cells
- Duration: 5 days of knock-down before the calcium assay
- Conditions: thapsigargin (SERCA pump blocker) to empty calcium stores; entry signal taken 4 min after adding it
- Read-out: 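Duplicate raw fluo-4 intensities per well from a plate reader, at rest and four minutes after thapsigargin emptied calcium stores; entry-to-rest ratio filled for only some wells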
- Direction: calcium entry signal: higher = stronger calcium signal after store depletion; entry to resting ratio: higher = more calcium entry relative to resting level; resting calcium signal: higher = higher resting calcium signal
- Call rule: 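Called when the plate z-score of the entry-to-rest ratio, mean of duplicates, falls below −3; wells with low overall dye signal (Fmax z below −2) or more than five off-targets excluded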
- Calls: active = strongly reduced calcium entry; inactive = no strong reduction
The deposit covers about 23,000 reagents; below is a random part of those that have a named target and a result. Of all reagents, 75 (0.33%) are marked active. 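Raw plate signals without normalisation; calls rest on plate z-scores that were not deposited; ratio present for only 364 wells.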 The numbers tell different reagents against one gene apart. Names joined by + are all predicted targets of the reagent. Not stated in the record: the dose of the treatment.

predicted target	reagent no.	calcium entry signal, replicate 1 (fluorescence units)	calcium entry signal, replicate 2 (fluorescence units)	entry to resting ratio	resting calcium signal, replicate 1 (fluorescence units)	resting calcium signal, replicate 2 (fluorescence units)	Call
Rab3-GAP	1	4.25e7			2.05e7		inactive
CG9799	1	2.46e7	3.48e7		1.13e7	1.77e7	inactive
DptA	1	3.78e7	4.81e7		1.64e7	2.27e7	inactive
alka	1	4.26e7	3.91e7		1.84e7	1.64e7	inactive
NKAIN	1	2.83e7			1.45e7		inactive
NKAIN	2	4.15e7	3.52e7		2.08e7	1.61e7	inactive
CG33308	1	2.93e7	3.40e7		1.76e7	1.81e7	inactive
CG43307	1	2.34e7	3.09e7		1.32e7	1.55e7	inactive
CG43336	1	2.32e7	4.82e7		1.28e7	5.91e7	inactive
CG30428	1	3.27e7	4.67e7		1.67e7	2.13e7	inactive
kz	1	2.12e7	2.83e7	1.8	1.15e7	1.37e7	inactive
stv	1	2.80e7	3.49e7		1.31e7	2.13e7	inactive
stv	2	3.72e7	4.86e7		1.88e7	2.12e7	inactive
CG31955	1	4.01e7	3.59e7		1.88e7	1.62e7	inactive
Reck	1	4.11e7	4.72e7		1.89e7	3.09e7	inactive
Reck	2	4.38e7	5.05e7		1.97e7	1.80e7	inactive
CG42544	1	2.96e7	4.43e7		1.57e7	2.18e7	inactive
CG14883	1	3.11e7	6.05e7		1.67e7	6.74e7	inactive
CCHa1-R	1	4.15e7	5.95e7		1.93e7	2.69e7	inactive
CCHa1-R	2	4.60e7	5.62e7		2.14e7	2.67e7	inactive
CG8097	1	2.59e7	3.36e7		1.38e7	1.53e7	inactive
dlt	1	3.95e7	4.12e7		1.87e7	1.67e7	inactive
CG11695	1	2.94e7	3.88e7		1.53e7	1.76e7	inactive
Membrin	1	3.02e7	5.88e7		1.59e7	2.57e7	inactive
cbc	1	2.37e7	2.66e7		1.04e7	1.20e7	inactive
Gs1l	1	2.53e7	2.50e7		1.20e7	1.13e7	inactive
nolo	1	3.53e7			1.68e7		inactive
nolo	2	2.79e7	3.49e7		1.47e7	1.62e7	inactive
nolo	3	2.78e7	3.32e7		1.49e7	1.59e7	inactive
CG4960	1	3.36e7	4.97e7		1.94e7	2.42e7	inactive
mgl	1	3.49e7	4.41e7		1.73e7	2.25e7	inactive
mgl	2	3.76e7	3.64e7		1.75e7	1.76e7	inactive
mgl	3	3.90e7	5.07e7		1.93e7	2.41e7	inactive
mgl	4	4.37e7	5.69e7		1.98e7	2.65e7	inactive
CG34187 (retired record) + Trpm	1	3.52e7	5.11e7		1.88e7	2.17e7	inactive
CG12321	1	5.79e7	4.43e7		2.76e7	1.93e7	inactive
beag	1	4.30e7	4.58e7		1.61e7	1.98e7	inactive
Sec22 + CG13358	1	5.17e7	3.56e7		2.29e7	1.93e7	inactive
CG18178	1	5.04e7	3.84e7		3.17e7	1.62e7	inactive
CG15022	1	2.52e7	7.01e7		1.22e7	2.60e7	inactive
CG12934	1	4.04e7	3.78e7		2.15e7	1.93e7	inactive
CG15537	1	3.77e7	4.30e7		1.83e7	1.75e7	inactive
CG12784	1	2.57e7	3.38e7		1.25e7	4.10e7	inactive
CG11504	1	3.60e7	4.17e7		1.55e7	1.79e7	inactive
Ant2	1	4.81e7	4.04e7		2.20e7	1.93e7	inactive
spd-2	1	2.34e7	3.20e7		1.13e7	2.31e7	inactive
scramb2	1	3.85e7	3.83e7		2.01e7	1.83e7	inactive
Pex23	1	3.07e7	4.34e7		1.53e7	3.14e7	inactive
Pex23	2	2.50e7	4.22e7		1.19e7	1.60e7	inactive
Galk	1	4.20e7	2.83e7		2.89e7	1.32e7	inactive
ss	1	4.23e7	5.29e7		1.98e7	7.98e7	inactive
ppk16	1	3.59e7	4.28e7		1.77e7	1.88e7	inactive
eEF1alpha2	1	3.82e7	3.60e7		2.02e7	1.58e7	inactive
eEF1alpha2	2	1.64e7	2.31e7	1.7	9.87e6	1.11e7	inactive
CG32985	1	2.79e7	4.04e7		1.25e7	1.75e7	inactive
ND-49	1	4.28e7	6.46e7	2.1	2.02e7	2.08e7	inactive
PolI	1	5.30e7	3.41e7		2.60e7	1.70e7	inactive
Fkbp59	1	4.16e7	6.71e7		1.97e7	2.60e7	inactive

Entries above whose gene name begins with G or g (2):
predicted target	reagent no.	calcium entry signal, replicate 1 (fluorescence units)	calcium entry signal, replicate 2 (fluorescence units)	entry to resting ratio	resting calcium signal, replicate 1 (fluorescence units)	resting calcium signal, replicate 2 (fluorescence units)	Call
Gs1l	1	2.53e7	2.50e7		1.20e7	1.13e7	inactive
Galk	1	4.20e7	2.83e7		2.89e7	1.32e7	inactive
